These are yes or no findings as the source states them, for the method shown. Binding seen in cells or lysates may run through a third protein. Here binding means that the protein was enriched with, or labelled near, the bait; the list need not be complete. No binding means not detected with the bait.
B1: THOC3, endogenous (protein, UniProt Q96J01 1-351)
chain: MAVPAAAMGPSALGQSGPGSMAPWCSVSSGPSRYVLGMQELFRGHSKTREFLAHSAKVHSVAWSCDGRRLASGSFDKTASVFLLEKDRLVKENNYRGHGDSVDQLCWHPSNPDLFVTASGDKTIRIWDVRTTKCIATVNTKGENINICWSPDGQTIAVGNKDDVVTFIDAKTHRSKAEEQFKFEVNEISWNNDNNMFFLTNGNGCINILSYPELKPVQSINAHPSNCICIKFDPMGKYFATGSADALVSLWDVDELVCVRCFSRLDWPVRTLSFSHDGKMLASASEDHFIDIAEVETGDKLWEVQCESPTFTVAWHPKRPLLAFACDDKDGKYDSSREAGTVKLFGLPNDS

Target: GST-Nsp1 (SARS-CoV-2 Nsp1, expressed in 293T cells) (SARS-CoV-2) (UniProt P0DTD1)
Assay: affinity purification with mass spectrometry

| Molecule | binding |
| --- | --- |
| GANP (germinal center-associated nuclear protein), endogenous (from UniProt O60318 1-1980) | no binding |
| mRNA export factor/RNA helicase UAP56 (DDX39B), endogenous (from UniProt Q13838 1-428) | binds |
| B1 | no binding |

— PMC7864571
